From PMC3167847 come the findings set out here.

Chains of the proteins cited; added tags and fusions are not shown.
UniProt P15307: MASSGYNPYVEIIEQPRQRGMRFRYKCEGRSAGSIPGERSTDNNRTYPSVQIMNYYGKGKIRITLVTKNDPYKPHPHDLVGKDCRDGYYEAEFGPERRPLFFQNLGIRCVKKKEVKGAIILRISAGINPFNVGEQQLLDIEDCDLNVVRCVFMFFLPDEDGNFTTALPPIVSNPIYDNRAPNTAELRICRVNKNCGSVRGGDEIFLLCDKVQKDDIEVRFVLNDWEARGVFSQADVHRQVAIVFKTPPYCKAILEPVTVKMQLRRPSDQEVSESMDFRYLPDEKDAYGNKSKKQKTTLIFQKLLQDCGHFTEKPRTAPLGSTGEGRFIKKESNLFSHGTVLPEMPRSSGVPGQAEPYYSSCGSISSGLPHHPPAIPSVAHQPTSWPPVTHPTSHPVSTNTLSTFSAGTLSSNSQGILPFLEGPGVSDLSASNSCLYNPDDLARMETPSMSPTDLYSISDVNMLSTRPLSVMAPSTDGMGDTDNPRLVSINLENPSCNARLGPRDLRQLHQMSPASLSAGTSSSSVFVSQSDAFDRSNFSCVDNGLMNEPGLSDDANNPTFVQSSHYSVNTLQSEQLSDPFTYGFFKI

These are yes or no findings as the source states them, for the method shown. In cells and extracts the contact can be indirect. Some results given as binding are weak or reduced against the parent protein; the word gives no strength.

Assay [1] has as its target Inhibitor of kappa B alpha (IκBα) (mouse (endogenous in 11A2 T cell hybridoma)) (UniProt Q9Z1E3). Kind of assay: co-IP; IκBα, -β or -ε immunoprecipitated with their antibodies from 100 µg cytosolic protein of control and TNF-pre-treated 11A2 cells, resting or stimulated with PMA and ionomycin for up to 4 h; immunoblot for associated c-Rel and p65.
In assay [2] the target is T1, Inhibitor of kappa B beta (IκBβ) (mouse (endogenous in 11A2 T cell hybridoma)) (UniProt Q60778).
T1 sequence: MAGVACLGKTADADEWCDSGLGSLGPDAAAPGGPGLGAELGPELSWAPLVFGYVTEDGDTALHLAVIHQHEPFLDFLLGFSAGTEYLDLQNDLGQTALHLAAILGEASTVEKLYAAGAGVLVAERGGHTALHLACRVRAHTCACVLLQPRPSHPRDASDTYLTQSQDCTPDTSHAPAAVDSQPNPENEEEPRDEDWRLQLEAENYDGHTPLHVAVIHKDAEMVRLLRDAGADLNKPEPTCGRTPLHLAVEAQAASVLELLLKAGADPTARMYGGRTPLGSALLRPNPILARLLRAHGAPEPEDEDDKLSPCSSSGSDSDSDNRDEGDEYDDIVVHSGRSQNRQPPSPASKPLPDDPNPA
The assay is described as above.

In assay [3] the target is T2, Inhibitor of Kappa B Epsilon (IκBε) (mouse (endogenous in 11A2 T cell hybridoma)) (UniProt O54910).
T2 sequence: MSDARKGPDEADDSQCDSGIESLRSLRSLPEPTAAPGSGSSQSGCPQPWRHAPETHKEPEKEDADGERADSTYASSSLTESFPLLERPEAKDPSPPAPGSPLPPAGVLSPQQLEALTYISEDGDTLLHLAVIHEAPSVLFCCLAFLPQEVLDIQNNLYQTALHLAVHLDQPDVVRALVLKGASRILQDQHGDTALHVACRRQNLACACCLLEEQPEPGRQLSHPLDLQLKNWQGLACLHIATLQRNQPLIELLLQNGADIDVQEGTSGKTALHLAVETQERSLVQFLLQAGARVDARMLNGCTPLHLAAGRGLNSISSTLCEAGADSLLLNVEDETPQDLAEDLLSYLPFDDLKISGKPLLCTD
The assay is described as above.

In assay [4] the target is p65 (RelA) (mouse (endogenous in 11A2 T cell hybridoma)) (UniProt Q04207). Kind of assay: co-IP; p65 immunoprecipitated with agarose-conjugated anti-p65 from 100 µg cytosolic protein of control and TNF-pre-treated 11A2 cells, resting or stimulated with PMA and ionomycin for up to 4 h; immunoblot for associated IκBs and c-Rel. On the technique in general: Immunoblotting shows a protein as a band on a membrane.

The target of assay [5] is T3, Inhibitor of kappa B alpha (IκBα) (mouse (endogenous in 11A2 T cell hybridoma)), Q9Z1E3.
T3 chain: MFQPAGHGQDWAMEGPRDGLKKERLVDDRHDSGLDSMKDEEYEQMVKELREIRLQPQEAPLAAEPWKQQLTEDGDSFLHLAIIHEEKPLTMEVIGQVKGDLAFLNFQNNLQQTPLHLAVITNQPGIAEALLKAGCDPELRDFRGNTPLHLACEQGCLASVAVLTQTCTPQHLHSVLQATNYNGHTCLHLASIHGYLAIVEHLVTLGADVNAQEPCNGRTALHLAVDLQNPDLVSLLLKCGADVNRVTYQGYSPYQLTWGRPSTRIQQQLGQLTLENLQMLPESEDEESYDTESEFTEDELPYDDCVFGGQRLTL
Briefly: co-IP; IκBα, -β or -ε immunoprecipitated with their antibodies from 100 µg cytosolic protein of control and TNF-pre-treated 11A2 cells, resting or stimulated with PMA and ionomycin for up to 4 h; immunoblot for associated c-Rel and p65. The settings on record: remark: other sources report otherwise.

Assay [6] deals with T4, p65 (RelA) (mouse (endogenous in 11A2 T cell hybridoma)), Q04207.
T4 chain: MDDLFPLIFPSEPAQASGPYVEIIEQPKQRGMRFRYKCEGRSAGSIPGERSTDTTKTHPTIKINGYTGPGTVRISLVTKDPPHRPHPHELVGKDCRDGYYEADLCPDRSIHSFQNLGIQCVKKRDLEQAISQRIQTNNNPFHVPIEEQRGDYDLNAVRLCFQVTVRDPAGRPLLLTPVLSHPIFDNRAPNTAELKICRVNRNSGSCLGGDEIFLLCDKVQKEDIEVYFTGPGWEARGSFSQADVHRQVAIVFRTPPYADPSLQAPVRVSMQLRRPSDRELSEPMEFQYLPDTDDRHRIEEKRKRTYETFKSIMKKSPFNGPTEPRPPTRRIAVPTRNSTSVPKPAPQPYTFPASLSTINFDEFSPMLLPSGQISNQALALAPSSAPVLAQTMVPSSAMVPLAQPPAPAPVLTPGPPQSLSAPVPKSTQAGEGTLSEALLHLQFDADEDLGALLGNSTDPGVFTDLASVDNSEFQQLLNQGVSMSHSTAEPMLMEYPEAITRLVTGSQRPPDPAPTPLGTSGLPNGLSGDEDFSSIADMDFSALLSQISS
Kind of assay: co-IP; p65 immunoprecipitated with agarose-conjugated anti-p65 from 100 µg cytosolic protein of control and TNF-pre-treated 11A2 cells, resting or stimulated with PMA and ionomycin for up to 4 h; immunoblot for associated IκBs and c-Rel. Conditions: remark: other sources report otherwise.

On to c-Rel (from UniProt P15307 1-587), for which the binding result in assay [1], in assay [2], in assay [3] and in assay [4] was “binds” each time.

As to “Inhibitor of kappa B alpha (IκBα) (from UniProt Q9Z1E3 1-314)”, in assay [4], the binding entry is “binds”.

p65 (RelA) (from UniProt Q04207 1-549): the binding result in assay [1], in assay [2] and in assay [3] was “binds” in each case.

As for p50 (from UniProt P25799 1-431), the binding entry in assay [2] and in assay [3] was “no binding” in each case.

B1: p50, P25799 1-431 (protein)
chain: MADDDPYGTGQMFHLNTALTHSIFNAELYSPEIPLSTDGPYLQILEQPKQRGFRFRYVCEGPSHGGLPGASSEKNKKSYPQVKICNYVGPAKVIVQLVTNGKNIHLHAHSLVGKHCEDGVCTVTAGPKDMVVGFANLGILHVTKKKVFETLEARMTEACIRGYNPGLLVHSDLAYLQAEGGGDRQLTDREKEIIRQAAVQQTKEMDLSVVRLMFTAFLPDSTGSFTRRLEPVVSDAIYDSKAPNASNLKIVRMDRTAGCVTGGEEIYLLCDKVQKDDIQIRFYEEEENGGVWEGFGDFSPTDVHRQFAIVFKTPKYKDVNITKPASVFVQLRRKSDLETSEPKPFLYYPEIKDKEEVQRKRQKLMPNFSDSFGGGSGAGAGGGGMFGSGGGGGSTGSPGPGYGYSNYGFPPYGGITFHPGVTKSNAGVTHG
Regarding B1, the binding result in assay [5] and in assay [6] was “no binding” throughout.

B2: Inhibitor of kappa B beta (IκBβ) (protein, UniProt Q60778 1-359)
chain: MAGVACLGKTADADEWCDSGLGSLGPDAAAPGGPGLGAELGPELSWAPLVFGYVTEDGDTALHLAVIHQHEPFLDFLLGFSAGTEYLDLQNDLGQTALHLAAILGEASTVEKLYAAGAGVLVAERGGHTALHLACRVRAHTCACVLLQPRPSHPRDASDTYLTQSQDCTPDTSHAPAAVDSQPNPENEEEPRDEDWRLQLEAENYDGHTPLHVAVIHKDAEMVRLLRDAGADLNKPEPTCGRTPLHLAVEAQAASVLELLLKAGADPTARMYGGRTPLGSALLRPNPILARLLRAHGAPEPEDEDDKLSPCSSSGSDSDSDNRDEGDEYDDIVVHSGRSQNRQPPSPASKPLPDDPNPA
With B2, the binding entry in assay [4] is “binds”.
